# Data source: PubChem BioAssay AID1259308 (NCATS, 2017)
# Screen: 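Genes whose loss raises luciferase production in HEK293 cells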 (primary screen)
# System: human HEK293 embryonic kidney cells stably expressing firefly luciferase (HEK-CMV-Luc2-Hygro)
# Reagent: single siRNA against human genes, 0.8 pmol siRNA per well
# Time to read-out: 72 h
# Read-out: 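Luciferase light (ONE-Glo) measured on one replicate plate set and viability (CellTiter-Glo) on the other, scaled to a negative control siRNA, with robust z-scores and luciferase per cell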
# Reading the numbers: total luciferase, z-score and total luciferase, % of control: higher = more reporter protein produced; luciferase per cell, z-score: higher = more reporter output per viable cell; viable cells, % of control: higher = more viable cells
# Call rule: 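Active when the median/MAD z-score for overall luciferase is greater than 3; a gene was taken forward for validation with new siRNAs if at least two of its three siRNAs passed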
# Calls: active = raised luciferase; inactive = no rise
# Here is an unselected part of about 59,000 deposited reagents. Of all reagents, about 1,510 (2.6%) are marked active. 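Calls use total luciferase alone and ignore viability, so some active siRNAs may act by altering cell number.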 Reagents against one gene are numbered here.
gene knocked down,reagent no.,"total luciferase, z-score","total luciferase, % of control","luciferase per cell, z-score","viable cells, % of control",activity call
LGI4,1,-0.326,75.4,-0.0867,86.2,inactive
LGI4,2,-0.909,63.8,-0.91,90.6,inactive
LGI4,3,-0.209,77.7,-1.01,113,inactive
DOCK2,1,0.089,83.7,0.663,78.5,inactive
DOCK2,2,-0.554,70.9,-0.562,91.8,inactive
DOCK2,3,0.262,87.1,-0.707,117,inactive
BHMT2,1,0.704,95.9,1.04,81.4,inactive
BHMT2,2,0.413,90.1,0.55,87.1,inactive
BHMT2,3,0.891,99.6,1.2,81.1,inactive
LOC727799 (retired record),1,-0.551,70.9,-0.873,99.7,inactive
LOC727799 (retired record),2,-0.075,80.4,-0.609,105,inactive
LOC727799 (retired record),3,1.46,111,2.68,61.2,inactive
DEMA1,1,-0.728,67.4,0.0219,74.9,inactive
DEMA1,2,1.88,119,1.41,92,inactive
DEMA1,3,-0.135,79.2,-0.814,110,inactive
PALD1,1,-0.178,78.3,-0.254,93.6,inactive
PALD1,2,0.724,96.3,0.345,98.3,inactive
PALD1,3,0.841,98.6,1.81,68.5,inactive
PDC,1,0.621,94.2,1.26,75.5,inactive
PDC,2,-0.487,72.2,-1.33,114,inactive
PDC,3,0.27,87.3,0.601,83.2,inactive
H2AJ,1,-0.0535,80.8,-0.504,103,inactive
H2AJ,2,0.308,88,-0.0389,99.4,inactive
H2AJ,3,0.05,82.9,-0.22,98.1,inactive
SLC25A48,1,0.73,96.4,-0.593,126,inactive
SLC25A48,2,1.52,112,0.893,99.1,inactive
SLC25A48,3,2.72,136,2.41,80.5,inactive
SHROOM1,1,-0.282,76.3,-0.794,105,inactive
SHROOM1,2,0.714,96.1,1.1,80.4,inactive
SHROOM1,3,-0.299,75.9,0.0272,84.3,inactive
COL6A2,1,-0.0862,80.2,-0.0131,89.9,inactive
COL6A2,2,-0.577,70.4,0.00126,78.6,inactive
COL6A2,3,-1.39,54.2,-1.43,88.2,inactive
OR9A4,1,0.6,93.8,0.124,101,inactive
OR9A4,2,0.886,99.5,0.382,101,inactive
OR9A4,3,1.68,115,1.57,85.1,inactive
MAP3K2,1,-0.512,71.7,-0.581,93.4,inactive
MAP3K2,2,0.347,88.8,-0.292,107,inactive
MAP3K2,3,-0.00448,81.8,-0.346,100,inactive
APBA3,1,-0.276,76.4,0.238,80.2,inactive
APBA3,2,0.122,84.3,0.489,82.8,inactive
APBA3,3,0.482,91.5,0.442,91,inactive
LINC02913,1,0.599,93.8,0.292,97.1,inactive
LINC02913,2,0.476,91.4,0.386,92.2,inactive
LINC02913,3,0.215,86.2,0.552,83.3,inactive
LIN9,1,0.0906,83.7,0.446,83.1,inactive
LIN9,2,0.97,101,0.505,99,inactive
LIN9,3,-0.478,72.4,-1.01,105,inactive
SLITRK5,1,-1.3,56.1,-1.45,91.9,inactive
SLITRK5,2,0.218,86.2,0.512,84.2,inactive
SLITRK5,3,0.441,90.7,1.53,67.6,inactive
CTSV,1,2.03,122,1.57,90.4,inactive
CTSV,2,-0.703,67.9,-0.355,83.3,inactive
CTSV,3,0.183,85.5,0.696,79.6,inactive
HES3,1,0.0959,83.8,0.733,77.2,inactive
HES3,2,-0.346,75,-0.693,101,inactive
HES3,3,3.71,156,1.88,106,active
EIF2AK4,1,-0.966,62.7,-1.21,96.3,inactive
EIF2AK4,2,-1.43,53.5,-1.91,98.8,inactive
EIF2AK4,3,-0.604,69.9,0.483,68.8,inactive
ZNF890P,1,-0.734,67.3,-0.992,97.6,inactive
ZNF890P,2,0.167,85.2,-0.134,98.6,inactive
ZNF890P,3,0.273,87.3,0.679,81.6,inactive
EMP2P1,1,0.897,99.7,0.995,85.8,inactive
EMP2P1,2,-0.331,75.3,-0.0985,86.4,inactive
EMP2P1,3,-0.872,64.5,-0.934,92.2,inactive
LEMD3,1,-1.03,61.5,-0.732,83.3,inactive
LEMD3,2,-1.07,60.6,-0.996,88.1,inactive
LEMD3,3,-0.684,68.3,-0.654,90.6,inactive
CHAD,1,-1.15,59,-1.63,101,inactive
CHAD,2,-0.259,76.7,-0.196,90.3,inactive
CHAD,3,0.844,98.7,0.51,96.4,inactive
RPS16P1,1,-2.42,33.8,-1.18,51.5,inactive
RPS16P1,2,-1.78,46.6,-1.9,85.9,inactive
RPS16P1,3,-2.54,31.4,-1.94,58.4,inactive

In a second layout: results already given
| gene knocked down | reagent no. | total luciferase, z-score | total luciferase, % of control | luciferase per cell, z-score | viable cells, % of control | activity call |
| --- | --- | --- | --- | --- | --- | --- |
| H2AJ | 2 | 0.308 | 88 | -0.0389 | 99.4 | inactive |
| H2AJ | 3 | 0.05 | 82.9 | -0.22 | 98.1 | inactive |
| SLC25A48 | 1 | 0.73 | 96.4 | -0.593 | 126 | inactive |
| SLC25A48 | 2 | 1.52 | 112 | 0.893 | 99.1 | inactive |
| SLC25A48 | 3 | 2.72 | 136 | 2.41 | 80.5 | inactive |
| SHROOM1 | 1 | -0.282 | 76.3 | -0.794 | 105 | inactive |
| SHROOM1 | 2 | 0.714 | 96.1 | 1.1 | 80.4 | inactive |
| SHROOM1 | 3 | -0.299 | 75.9 | 0.0272 | 84.3 | inactive |
| COL6A2 | 1 | -0.0862 | 80.2 | -0.0131 | 89.9 | inactive |
| COL6A2 | 2 | -0.577 | 70.4 | 0.00126 | 78.6 | inactive |
| COL6A2 | 3 | -1.39 | 54.2 | -1.43 | 88.2 | inactive |
